The values that follow come from the supplement of paper PMC12889115.

The subject of this experiment is Salmonella enterica serovar Typhimurium SL1344. In words: bacterial growth OD600 after 18 h with compound and polymyxin B; higher = more bacterial growth (less inhibition). As to conditions: 50 µM, Mueller-Hinton broth.

The other results are listed elsewhere or left out. Values are raw readings; no control value is given beside them.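 Primary screen: polymyxin B was added at a level permeabilizing Salmonella outer membranes while sparing inner membranes. DMSO wells, both with and without polymyxin B, established maximum growth. Plate-to-plate variation meant each plate was ranked on its own, and the lowest-OD600 compounds were selected as hits.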

As for `COc1cccc(-c2n[nH]c3c2CN(C(=O)c2ccccc2N(C)C)CC3)c1`, for the setting “polymyxin B 0.75 µg/mL”, the “bacterial growth OD600” value turned out to be 0.164.
Still for that read-out and setting: with `O=C1O[C@@H]2CN(Cc3cnc(N4CCCC4)s3)C[C@@H]2N1C1CCCC1` the figure was 0.837.
For `COc1ccc(F)c(CN2CCC(CCC(=O)N3CCN(c4ccccc4)CC3)CC2)c1`, under “polymyxin B 1 µg/mL”, the “bacterial growth OD600” value amounted to 0.906.
`CCCCC1CN(CCNC(=O)c2ccc(OC)c(OC)c2OC)Cc2ccccc2O1` (centres undefined): where the note is “polymyxin B 0.75 µg/mL”, the “bacterial growth OD600” value stood at 0.64.
Consider `CCOc1ccc(CN2CCN(Cc3ccc(OC)c(O)c3)CC2CCO)cc1` (centres undefined), for which the “bacterial growth OD600” value (polymyxin B 1 µg/mL) was 0.832.
Regarding `O=C(CCC1CCN(CC2CC=CCC2)CC1)Nc1ccc2c(c1)OCCO2` (centres undefined), where the note is “polymyxin B 1 µg/mL”, the “bacterial growth OD600” value is 1.06.
With `OC1CCN([C@@H]2CCN(Cc3cccc4c3oc3ccccc34)C[C@H]2O)CC1`, the “bacterial growth OD600” value (polymyxin B 0.75 µg/mL) turned out to be 0.778.
Still for that read-out and setting: for `COCCn1c(CN(C)C(C)C)cnc1S(=O)(=O)CC1CCCCC1` the value was 0.82.
For the compound `Cc1c(CC(=O)NCC2CC2)c2c(n1Cc1ccccc1F)CCCC2=O`, the “bacterial growth OD600” value (polymyxin B 1 µg/mL) was found to be 0.424.
On to `CC(=O)Nc1cc(C(=O)N(C)Cc2nc3c(s2)CCCC3)c2c(c1)nc(C)n2Cc1ccccc1`, for which, for the setting “polymyxin B 0.75 µg/mL”, the “bacterial growth OD600” value is 0.781.
In the case of `CN(CC1CCCN(CCc2ccc(F)cc2)C1)C(=O)C1(c2ccccc2)CC1` (centres undefined), the “bacterial growth OD600” value (polymyxin B 1 µg/mL) was 0.021.
For the compound `O=C1OCCN1CCNc1ccc(-c2nc(-c3cccc(Cl)c3)no2)cn1`, the “bacterial growth OD600” value (polymyxin B 0.75 µg/mL) stood at 0.002.
In the case of `CCC(CC)NC1CCCc2nc(N3CCC(CO)CC3)ncc21` (centres undefined), the “bacterial growth OD600” value (polymyxin B 1 µg/mL) was determined as 1.35.
On the same count and under the same terms, with `CCN1CCC(CN(C)C(=O)c2cc(Cn3c(C)nc4ccccc43)[nH]n2)C1` (centres undefined) the figure was 0.871; with `O=C(NCc1cccs1)c1ccc(OC2CCN(Cc3ccccn3)CC2)cc1`, 0.836; with `CCCCn1c(CN(C)Cc2sccc2C)cnc1S(=O)(=O)CC1CCC1`, 0.018.
Turning to `CC(NC(=O)C1(N(C)CCc2ccccc2)Cc2ccccc2C1)c1ccncn1` (centres undefined), the “bacterial growth OD600” value (polymyxin B 0.75 µg/mL) was found to be 0.006.
Take `CCc1csc(CNC(=O)c2ccc(N3C[C@@H](C)O[C@@H](C)C3)nc2)n1`: the “bacterial growth OD600” value (polymyxin B 1 µg/mL) amounted to 0.826.
As to `CC#CCN1C(=O)NC(CCc2ccccc2)(C2CCN(Cc3ccc4c(c3)CCO4)CC2)C1=O` (centres undefined), the “bacterial growth OD600” value (polymyxin B 0.75 µg/mL) came to 0.76.
